# Some results were stated once for a whole list of compounds, not compound by compound.
# Experiment: Solubility relative to 100 g of water at 20° C.
# Type: physicochemical
# Settings: per 100 g of water
structure (smiles),measurement,value
NNC(=O)CCCCCCCCC(=O)NN [sebacic acid dihydrazide],solubility relative to 100 g of water,≤ 0.01 g

# Source: patent publication US8846788B2, “Polyacetal resin composition, resin molded article, and method and agent for improving polyacetal resin raw material composition” (Mitsubishi Engineering-Plastics Corporation, priority 2008, dated 2014)
